Assay results published in publication doi:10.1101/2020.08.19.257287.
No constants are given. Whether binding was seen depends on the method and setting. Binding seen in cells or lysates may run through a third protein. Some results given as binding are weak or reduced against the parent protein; the word gives no strength. For part of these data: Where a sequence is shown, tags or fusion partners need not be part of it.

Protein sequences, listed by entry. Tags and fused reporters are not part of them.
UniProt O43399: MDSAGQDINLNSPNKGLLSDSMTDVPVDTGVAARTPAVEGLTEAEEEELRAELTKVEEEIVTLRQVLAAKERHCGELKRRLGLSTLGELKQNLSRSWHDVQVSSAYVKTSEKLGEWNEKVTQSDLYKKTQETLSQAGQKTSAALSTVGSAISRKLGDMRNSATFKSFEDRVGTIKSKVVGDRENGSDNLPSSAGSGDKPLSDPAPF

Key:
Test in all cases: co-IP
[1] = target: T1, FLAG-TPD52 (human) (UniProt P55327)
T1 sequence: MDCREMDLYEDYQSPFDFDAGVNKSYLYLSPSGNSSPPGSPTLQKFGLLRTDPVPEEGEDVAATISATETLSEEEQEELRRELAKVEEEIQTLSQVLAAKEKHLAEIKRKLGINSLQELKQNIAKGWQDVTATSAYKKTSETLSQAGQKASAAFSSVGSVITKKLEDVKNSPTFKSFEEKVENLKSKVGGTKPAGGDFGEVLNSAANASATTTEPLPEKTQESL

[2] = target: T2, FLAG-TPD53 (human) (UniProt Q16890)
T2 sequence: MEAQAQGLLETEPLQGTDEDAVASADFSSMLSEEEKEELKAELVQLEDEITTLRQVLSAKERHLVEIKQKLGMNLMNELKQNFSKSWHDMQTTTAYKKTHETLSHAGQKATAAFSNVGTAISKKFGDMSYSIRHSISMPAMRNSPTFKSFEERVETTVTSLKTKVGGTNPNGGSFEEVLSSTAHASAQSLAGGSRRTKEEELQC

[3] = target: FLAG-TPD54 (human) (UniProt O43399)

binding [1]: binds | binding [2]: binds | binding [3]: binds
Substance: GFP-FKBP-TPD54 (from UniProt O43399 1-206)
